Test [1] deals with Aβ monomers (UniProt P05067). In words: direct ELISA on Aβ monomer and competition ELISA. (In an ELISA, binding on a coated surface is turned into a signal by an enzyme label.)
In test [2] the target is Aβ monomers (UniProt P05067). Kind of test: direct binding ELISA.
Test [3] deals with Aβ monomers (UniProt P05067). Kind of test: competitive ELISA with monomeric and protofibrillar Aβ.

Sequences of proteins named here, by UniProt entry; tags and fusion partners are left off. Residues count along the entry.
UniProt P05067, residues 672-711: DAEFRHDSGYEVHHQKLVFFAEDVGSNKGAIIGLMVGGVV

Numbering of substitutions follows the chain as printed. Results are given in words; binding and its absence hold for the method and conditions named. Some results given as binding are weak or reduced against the parent protein; the word gives no strength.

B1: chimeric 158 antibody (158 VH x 158 VK) (antibody, V domains shown)
VH: DVQLVESGGGLVQPGGSRKLSCAASGFTFSSFGMHWVRQAPEKGLEWVAYISSGSSTIYYGDTVKGRFTISRDNPKNTLFLQMTSLRSEDTAMYYCAREGGYYYGRSYYTMDYWGQGTSVTVSS
VL: DVLMTQTPLSLPVSLGDQASISCRSSQSIVHSNGNTYLEWYLQKPGQSPKLLIYKVSNRFSGVPDRFSGSGSGTDFTLKISRVEAEDLGIYYCFQGSHVPPTFGGGTKLEIK
B1: the binding result in the test with Aβ monomers [1] and with Aβ monomers [2] was “binds” throughout.

B2: humanized 158 antibody (BAN2401) (antibody, V domains shown)
VH: EVQLVESGGGLVQPGGSLRLSCSASGFTFSSFGMHWVRQAPGKGLEWVAYISSGSSTIYYGDTVKGRFTISRDNAKNSLFLQMSSLRAEDTAVYYCAREGGYYYGRSYYTMDYWGQGTTVTVS
VL: B1 VL with L3V, T7S, S14T, L15P, D17A, Q18P, K79R, L88V, G105P
On to B2, for which the binding entry with Aβ monomers [3] is “binds”.
